Data published in PMC5608759.

Sequences of proteins named here, by UniProt entry; tags and fusion partners are left off.
UniProt P04150: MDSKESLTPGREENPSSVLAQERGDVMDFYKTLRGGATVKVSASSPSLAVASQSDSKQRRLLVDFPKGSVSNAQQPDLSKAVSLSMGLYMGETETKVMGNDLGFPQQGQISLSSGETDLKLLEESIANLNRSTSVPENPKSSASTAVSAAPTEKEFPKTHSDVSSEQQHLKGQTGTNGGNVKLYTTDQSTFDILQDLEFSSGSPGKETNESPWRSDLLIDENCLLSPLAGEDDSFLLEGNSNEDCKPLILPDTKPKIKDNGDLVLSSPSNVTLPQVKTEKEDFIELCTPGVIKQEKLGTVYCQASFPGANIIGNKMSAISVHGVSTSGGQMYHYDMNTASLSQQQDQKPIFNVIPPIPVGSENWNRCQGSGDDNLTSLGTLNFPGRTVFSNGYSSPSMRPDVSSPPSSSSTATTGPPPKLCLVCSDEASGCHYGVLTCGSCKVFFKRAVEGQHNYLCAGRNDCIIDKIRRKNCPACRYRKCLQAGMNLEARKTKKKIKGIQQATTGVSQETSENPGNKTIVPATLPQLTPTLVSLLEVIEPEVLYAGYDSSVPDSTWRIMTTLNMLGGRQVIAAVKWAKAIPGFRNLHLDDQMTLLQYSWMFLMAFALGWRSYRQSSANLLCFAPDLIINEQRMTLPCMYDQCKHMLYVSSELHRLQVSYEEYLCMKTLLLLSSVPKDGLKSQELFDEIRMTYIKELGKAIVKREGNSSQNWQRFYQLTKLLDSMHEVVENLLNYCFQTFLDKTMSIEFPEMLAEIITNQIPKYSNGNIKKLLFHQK

B1: poly(A)-binding protein (protein, UniProt P31209 1-653)
chain: MPSTDLKKQADAAVESDVNTNNEAVESSTKEESSNTPSTETQPEKKAEEPEAAAEPSESTSTPTNASSVATPSGTAPTSASLYVGELDPSVTEAMLFELFNSIGPVASIRVCRDAVTRRSLGYAYVNFHNMEDGEKALDELNYTLIKGRPCRIMWSQRDPSLRKMGTGNVFIKNLDPAIDNKALHDTFSAFGKILSCKVAVDELGNAKGYGFVHFDSVESANAAIEHVNGMLLNDKKVYVGHHVSRRERQSKVEALKANFTNVYIKNLDTEITEQEFSDLFGQFGEITSLSLVKDQNDKPRGFGFVNYANHECAQKAVDELNDKEYKGKKLYVGRAQKKHEREEELRKRYEQMKLEKMNKYQGVNLFIKNLQDEVDDERLKAEFSAFGTITSAKIMTDEQGKSKGFGFVCYTTPEEANKAVTEMNQRMLAGKPLYVALAQRKEVRRSQLEAQIQARNQFRLQQQVAAAAGIPAVQYGATGPLIYGPGGYPIPAAVNGRGMPMVPGHNGPMPMYPGMPTQFPAGGPAPGYPGMNARGPVPAQGRPMMMPGSVPSAGPAEAEAVPAVPGMPERFTAADLAAVPEESRKQVLGELLYPKVFVREEKLSGKITGMLLEMPNSELLELLEDDSALNERVNEAIGVLQEFVDQEPGFTE
B2: translation initiation factor eIF3c (protein, UniProt O14164 1-918)
chain: MSRFFKGGSSDSDAESVDSSEENRLTSSRLKKQDDSSSEEESSEEESASSSESESSEEESESEESEVEVPKKKAVAASEDSESDSESSEEEEETESEEDSEVSDESESESESESESEEESESEEESDESERSGPSSFLKKPEKEEAKPAGLKFLRGESSEESSDEEEGRRVVKSAKDKRYEEFISCMETIKNAMSSNNWIVVSNEFDHLNKVSQKCKEAGRNPPPYIEFLSALDQKLESADKAFIKSLDAANGRAFNALKQRVRKNNRQFQSDIDRYRKDPEGFMKPAELNEIPKPAGKAGQDEVIVDGVATRGIVAPTEGLGKPEEITPADIFKYLRAIFEARGKKSTDRSEQIRLLEKLSTIAVTDYQRLRVKVALLAVRFDINTGSGQYMPIDQWNAALTELHSILDIFDANPKIVIVEQVEDENEEEEEAIAAAENNNGVIQVQGSVVSFLERLDDEFTRSLQMIDPHTPEYIDRLKDETSLYTLLVRSQGYLERIGVVENTARLIMRRLDRVYYKPEQVIRANEEVAWRSFPPTFDLTITPRATTTTPDILIHSLCVYLYNNGVSLLRTRAMLCHIYHEALQNRFYKARDMLLMSHLQDSVHAADIATQILHNRTMVQIGLCAFRNGMVQETQYALQDISTTGRVKELLGQGIQAPKFGQFTPDQDRLDKQLVLPFHMHINLELLECVYLTCSMLMEIPAMAAASSTASDSRKRVISRPFRRMLEYIDRQLFVGPPENTREYIMQASKALADGEWRRCEEFIHAIKIWSLMPDADKIKQMLSEKIREEGLRTYLLAYAAFYDSVSLEFLATTFDLPVQRVTVIVSRLLSKREIHAALDQVHGAIIFERVEINKLESLTVSLSEKTAQLNEANEKLYEQKTQHTNPQENRRRDKGGSVKRRNERTENRNRSDMN
B3: nop9 (protein, UniProt Q92347 1-655)
chain: MPKKRKTRGKKHSAKQKEEEVNSVVSPGIAKNDEGAGNDEGAYQVNRYTNEPVQPFFGALDPEEEKYFQQAEQAFANHFTRENEDTRFFVDSIYREVQGKELIVCNNVFGSKVLEKLFPLSTSRQIKSFFSALNGHYVELIQTTFGSYAFEKLLSHMAAILNLETQGVTEDQDDVLEGENENVFMTAETLLMYMYNEIRPEVSMLMSHKLAVHVLGKIFLLLDGYRFVYHDGNRTTMESISVPESFPQFAYSIIDSATDNLDTPELRAYCVDKYASQIMRAFIRIDFERSKKTKKKHDPRLVSKLLLSNEYDLKELPFMETLLKDETGSRILEVIVENMSASHLLRFYAVFEGRFYRLCVHPIANFIMQRYIRRLGRKEIGSVIDELKKNTDNIIRKSFLPVLRTLLEKSNHLHCYQDDIFSMIQTSVTNSGKDANIIPCLLRSKHKRDKANPENKERKLVNNLLGAQLLEEMLHCEKQHIQLLLDSVLDLSKEQILEYCLETVSSHLIEGILDLSDLNPVFLKKFLNILSGSFATLAVSAPGSHIVDKAWKATRALPLYRTRIVRELAEGGDDVKFDFYGKKVCSNWKVELFRRAPDEWYRFMKQDEPSKRVHERARQYGRIVSGSSANTQPLGEKRSTENDEELESGPKRVKV
B4: translation initiation factor eIF3a (protein, UniProt O74760 1-932)
chain: MAPPQGKPENVLRLADELIALDQHSSALQSLHETIVLKRSRNAQGFSLEPIMMRFIELCVHLRKGKIAKEGLYTYKNAVQNTSVTAIENVVKHFIELANKRVQEAQEKADKISVEYVDDLEATETPESIMMSLVSGDLSKSRTDRALVTPWLKFLWDAYRTVLDILRNNARLEVMYQLIANSAFQFCLKYQRKTEFRRLCELLRSHLGNASKFSNAPHSINLNDAETMQRHLDMRFSQLNVAVELELWQEAFRSIEDIHSLLTFSKRAPAAVMLGNYYRKLIKIFLVCDNYLLHAAAWNRYFTFTNVQKPATANFVILSALSIPIIDANKLSGPSIEAEDAKSKNARLALLLNLSKTPTRETLIKDAISRGVLSFCDQAIRDLYQILEVEFHPLSICKKLQPIIKRLAESNDTAQYIRPLQQVILTRLFQQLSQVYDSISLKYVMDLATFEEPYDFNPGQIEKFIMNGNKKGAFSIRLNHIENSISFSSDLFSNPIKSSDSVSLQSTPSELITSQLTRIAKSLSSVLMRFDTDFCLLRKQQAEAAYERAQAGVEQERKAVIAQRSLLELRRGQADTLATQREAELAAQRALKQKQESEAESLRVQEEINKRNAERIRREKEAIRINEAKKLAEELKAKGGLEVNAEDLEHLDADKLRAMQIEQVEKQNKSMNERLRVIGKRIDHLERAYRREAIPLWEEDAKQQAEHDREIFYEREKQRKEVQERKHEQAIKDKKAFAQFASYIHAYKQNIDDERDKAYQEAYAKAKNVIDAERERQRKEIFEQKLAEAIREAEEEAARAAEEEANRELHEQEEAQKRAIEERTRAAREAKEREQREMAEKLERQRRIQQERDEEISRKLAEKAAARRANIGASSPSPGAWRRGGASAGGVSRDSPRYSRGGYSRGSVPPRETLAPSKGAYVPPSRRNQQQQ
B5: eIf4G (protein, UniProt Q10475 1-1403)
chain: MSSKPPSNTPKFSYARALASSQSNKSNSTKASENNTATAEKQAVKPSGVEPTNTSRANAQKKTESTGKITSEADTEKYNSSKSPVNKEGSVEKKSSEKSSTNNKPWRGDNTSKPSANSSAERTSSQHQKPETSSQIGKDNAAPVENVNEKSTSQETAPPVSTVPIQFGSITRNAAIPSKPKVSGNMQNKSGVSSYSSKSQSVNSSVTSNPPHTEEPVAAKPEASSTATKGPRPTTSASNTNTSPANGAPTNKPSTDINTTDPATQTTQVSASNSPALSGSSTPSNTSSRSNRQNHGNFSEKRHYDRYGNSHPSYNKYSHYQHGFNYNNSGNNRNESGHPRFRNSRRNYNNQGAYPTYMSNGRSANQSPRNNPQNVNNGSTPIQIPVSLQTPYGQVYGQPQYIVDPNMVQYGPILQPGYVPQYYPVYHQTPYTQNFPNMSRSGSQVSDQVVESPNSSTLSPRNGFAPIVKQQKKSSALKIVNPVTHTEVVVPQKNASSPNPSETNSRAETPTAAPPQISEEEASQRKDAIKLAIQQRIQEKAEAEAKRKAEEKARLEAEENAKREAEEQAKREAEEKAKREAEEKAKREAEEKAKREAEENAKREAEEKAKREAEEKAKREAEEKAKREAEEKAKREAEEKAKREAEEKAKREAEEKAKREAEENAKREAEEKAKREAEENAKREAEEKVKRETEENAKRKAEEEGKREADKNPEIKSSAPLASSEANVDTSKQTNATEPEVVDKTKVEKLKASEGKSTSSLSSPSHSTSSKRDLLSGLESLSLKTNPKSEQCLESLLNSQFITDFSALVYPSTIKPPSTEEALKAGKYEYDVPFLLQFQSVYTDKPMKGWDERMKETVASAFSDKSSRGMYSSSRQSSRSGSNTHSHAGPGFGGPSERKGISRLGIDRGFSSSGAGFGSGSNYKSAPSRGVSHHGHGGMSGSHRGSQRGSRRGGGERDKPDPSSLTIPVDQVAPLQLSANRWQPKKLTEKPAETKGEDEEALLPPEVVQRKVKGSLNKMTLEKFDKISDQILEIAMQSRKENDGRTLKQVIQLTFEKATDEPNFSNMYARFARKMMDSIDDSIRDEGVLDKNNQPVRGGLLFRKYLLSRCQEDFERGWKANLPSGKAGEAEIMSDEYYVAAAIKRRGLGLVRFIGELFKLSMLSEKIMHECIKRLLGNVTDPEEEEIESLCRLLMTVGVNIDATEKGHAAMDVYVLRMETITKIPNLPSRIKFMLMDVMDSRKNGWAVKNEVEKGPKTIAEIHEEAERKKALAESQRPSSGRMHGRDMNRGDSRMGGRGSNPPFSSSDWSNNKDGYARLGQGIRGLKSGTQGSHGPTSLSSMLKGGSVSRTPSRQNSALRREQSVRAPPSNVAVTSANSFELLEEHDHDNDGGQKDSNSKTSS
B6: 19 S proteasome regulatory subunit Rpt1 (protein, UniProt O42931 1-438)
chain: MPPKEDWEKYQKPVDTEEENDKNPPPLDEGDIELLKSYATGPYARELAAIKEDTEAVLKRINDTVGIKESDTGLAPISFWDVAADRQRMSEEQPLQVARCTKIIENEQSAEKNAYVINLKQIAKFVVSLGERVSPTDIEEGMRVGCDRNKYAIQLPLPPKIDPSVTMMQVEEKPDVTYGDVGGCKEQIERLREVVELPLLSPERFVKLGIDPPKGIMLYGPPGTGKTLCARAVANRTDATFIRVIGSELVQKYVGEGARMVRELFEMARTKKACIIFFDEIDAIGGARFDDGAGGDNEVQRTMLELITQLDGFDPRGNIKVLFATNRPNTLDEALMRPGRIDRKVEFGLPDLEGRAHILRIHAKSMAIDKDIRWELIARLCPSQTGAELRSVCTEAGMFAIRARRRVATEKDFLDAVQKVVKGNQKFSSTADYMNMSS

These binders were tested against human glucocorticoid receptor alpha (GRα), expressed in S. pombe (human) (UniProt P04150) (assay: affinity purification with mass spectrometry; anti-GR antibody on epoxy-activated magnetic beads; lysates of S. pombe expressing hGRα (empty vector as control) grown at 30 °C or 39 °C (heat shock 30 min); lysis buffer 250 mM NaCl, 20 mM Tris pH 7.5, 1% Triton X-100, 100 mM potassium acetate; 4 °C, 1 hour, 6 washes; SDS-PAGE and LC-MS/MS).

| binding | Binder |
| --- | --- |
| binds | B1 |
| binds | B2 |
| binds | B3 |
| binds | B4 |
| binds | B5 |
| binds | B6 |

No constants are given. Whether binding was seen depends on the method and setting. In cells and extracts the contact can be indirect. Here binding means that the protein was enriched with, or labelled near, the bait; the list need not be complete.
